# Data taken from article PMC10564737, “Structure-based design of a phosphotyrosine-masked covalent ligand targeting the E3 ligase SOCS2” (Nature Communications, 2023).
# Chains of the proteins cited; added tags and fusions are not shown. Residues count along the entry.
# UniProt O14508, 32-198: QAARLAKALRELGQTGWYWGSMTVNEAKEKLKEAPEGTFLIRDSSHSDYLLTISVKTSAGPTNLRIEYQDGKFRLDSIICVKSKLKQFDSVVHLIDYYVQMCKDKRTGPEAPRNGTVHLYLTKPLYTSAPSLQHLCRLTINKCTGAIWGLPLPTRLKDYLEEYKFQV
# “And” between values parts separate entries of the source, which are not always exact repeats. Equal entries are not always repeated. Further values from the same series stand in other lists.
# Target: T1, SBC2 (Homo sapiens, UniProt O14508)
# T1 construct: SOCS2 (amino acids 32–198); His6 (N, cleaved yes); made in house; host or cells: E. coli BL21(DE3)
# Experiment: Covalent fluorescence polarization (FP) probe displacement assay
# Type: binding
# Excerpt: With the specific covalent modification of Cys111 established, we decided to fully characterize MN551 as a covalent SOCS2 inhibitor. […] (Fig. 2g, h, Supplementary Fig. 9). Due to the covalent nature of the competing inhibitor, a time-dependent reduction in the fraction of protein-bound probe is observed. […] This value illustrates reasonable specificity for a covalent inhibitor, with nonetheless scope for future optimization. In addition to characterizing the kinetic covalency parameters, we have also assessed the stability of the MN551 by monitoring its reactivity (half-life >70 min) with reduced glutathione (GSH) (Supplementary Fig. 10)[35].
# To monitor the SBC2-ligand binding kinetics we designed a fluorescein-labeled small-molecule probe - compound 26. The fluorescence polarization (anisotropy) of a threefold serial dilution of 50 µM SBC2 in 10 nM of the probe in 100 mM HEPES pH 7.5, 50 mM NaCl, 0.5 mM TCEP, 2% DMSO was measured to determine the KL (Supplementary Fig. 9A) (BMG Labtech PHERAstar – firmware v1.33). Protein titration and the curves were fitted using GraphPad Prism 9, using one-site fitting models to determine the probe binding constant, KL. Samples were run in triplicate in 384 well plates, using a total volume per well of 16 μL. The bound fraction of the probe is measure using the equation:1 Fb=Af−A/Af−Ab Where,
# A time-dependent reduction in probe anisotropy were measured for a 2-fold serial dilution of […] compound MN551 in 10 nM probe +300 μM SBC2. To determine the initial reversible binding affinity, the initial bound fraction of the probe at time = 0, Fbo (the y-intercept in Fb v/s Time plot, Supplementary Fig. 9B) was plotted against MN551 concentration, and the obtained IC50 is then converted to Ki (Supplementary Fig. 9C)[17]. The slope from Fb versus time graph when divided by Fbo gives rate of covalency, kobs. A plot of kobs v/s MN551 concentration using Michaelis–Menten model of GraphPad Prism 9, provides the parameters kinact (maximum potential rate of inactivation) and KI (concentration of MN551 at which kobs = kinact/2) (Supplementary Fig. 9D, E).
# The observed first-order rate constant, kobs is related to KI and kinact by the equation:2 kobs=kinactI/KI+I
# At [I]«[KI] the above equation is converted to3 […]
# The slope from the plot of kobs against concentration of MN551 gives us the covalent efficiency parameter kinact/KI (Supp Fig. 9F)[30],[33].
# [1] = MN551 6250 nM; Cycle 11 (50 min)
# [2] = MN551 6250 nM; Cycle 12 (55 min); n=1
# [3] = MN551 6250 nM; Cycle 13 (60 min); n=1
# [4] = MN551 6250 nM; Cycle 14 (65 min); n=1
# [5] = MN551 6250 nM; Cycle 15 (70 min); n=1
# [6] = MN551 6250 nM; Cycle 16 (75 min); n=1
# [7] = MN551 6250 nM; Cycle 17 (80 min); n=1
# [8] = MN551 12500 nM, Cycle 8 (35 min)
# [9] = MN551 12500 nM, Cycle 9 (40 min)
# [10] = MN551 12500 nM, Cycle 10 (45 min)
# [11] = MN551 12500 nM; Cycle 7 (30 min)
# [12] = MN551 12500 nM; Cycle 8 (35 min)
# [13] = MN551 12500 nM; Cycle 9 (40 min)
# [14] = MN551 12500 nM; Cycle 10 (45 min)
# [15] = MN551 12500 nM; Cycle 11 (50 min)
# [16] = MN551 12500 nM; Cycle 12 (55 min); n=1
# [17] = MN551 12500 nM; Cycle 13 (60 min); n=1
# [18] = MN551 12500 nM; Cycle 14 (65 min); n=1
# [19] = MN551 12500 nM; Cycle 15 (70 min); n=1
# [20] = MN551 12500 nM; Cycle 16 (75 min); n=1
# [21] = MN551 12500 nM; Cycle 17 (80 min); n=1
# [22] = MN551 25000 nM; Cycle 7 (30 min)
# [23] = MN551 25000 nM; Cycle 8 (35 min)
# [24] = MN551 25000 nM; Cycle 9 (40 min)
smiles,measurement,setting,value
O=C(CCl)Nc1cccc(CNC(=O)[C@H](Cc2ccc(OP(=O)(O)O)cc2)NC(=O)Cc2ccc(F)cc2)c1 [MN551],Fb,MN551 6250 nM; Cycle 10 (45 min),0.3266 and 0.3093 and 0.3109 and 0.2301 and 0.2543 and 0.2884
same,Anisotropy,[1],198.2 and 194.4 and 199.1
same,Anisotropy based on Raw Data (485),[1],199 and 199.9 and 199.1
same,"Anisotropy data 485,520,520",[1],201.7 and 201 and 202.3
same,Anisotropy,[2],199.5 and 199.1 and 199
same,Anisotropy based on Raw Data (485),[2],196.4 and 197.5 and 194
same,Anisotropy,[3],196 and 198.3 and 197.2
same,Anisotropy based on Raw Data (485),[3],191.6 and 194.2 and 190.7
same,Anisotropy,[4],195.3 and 193.7 and 195.1
same,Anisotropy based on Raw Data (485),[4],193.5 and 193.3 and 193
same,Anisotropy,[5],192.4 and 192.2 and 193.5
same,Anisotropy based on Raw Data (485),[5],191.9 and 189.3 and 189.9
same,Anisotropy,[6],191.5 and 191.1
same,Anisotropy based on Raw Data (485),[6],188.8 and 186.7 and 186
same,Anisotropy,[7],183.7 and 185.6 and 184.7
same,Anisotropy based on Raw Data (485),[7],183.5 and 186.6 and 187.8
same,"Anisotropy data 485,520,520",MN551 6250 nM; Cycle 20 (95 min); n=1,181.5 and 181.3 and 178.6
same,Fb,"MN551 12500 nM, Cycle 7 (30 min)",0.1837 and 0.2252 and 0.1968
same,Anisotropy based on Raw Data (485),[8],196.4 and 192.9 and 191.6
same,Fb,[8],0.1586 and 0.1902 and 0.176
same,Anisotropy based on Raw Data (485),[9],193.6 and 190.4 and 188.8
same,Fb,[9],0.1462 and 0.1718 and 0.1458
same,Anisotropy based on Raw Data (485),[10],191.4 and 190.5 and 186.4
same,Fb,[10],0.1355 and 0.1842 and 0.155
same,Anisotropy,"MN551 12500 nM, Cycle 13 (60 min), n=1",181.7 and 183.5 and 189.2
same,Anisotropy,"MN551 12500 nM, Cycle 14 (65 min), n=1",180.3 and 183.6 and 187.7
same,Anisotropy,"MN551 12500 nM, Cycle 15 (70 min), n=1",179.6 and 180.9 and 183.7
same,Anisotropy,"MN551 12500 nM, Cycle 16 (75 min), n=1",177.3 and 179.9 and 182.9
same,Anisotropy,"MN551 12500 nM, Cycle 18 (85 min), n=1",174.5 and 177.7 and 181.3
same,"Fb, fraction bound",MN551 12500 nM; Cycle 4 (15 min),0.235 and 0.2883 and 0.3254
same,"Fb, fraction bound",MN551 12500 nM; Cycle 5 (20 min),0.1985 and 0.2951 and 0.3
same,"Fb, fraction bound",MN551 12500 nM; Cycle 6 (25 min),0.1835 and 0.25 and 0.2758
same,"Anisotropy data 485,520,520",[11],192.7 and 194.6 and 195
same,Fb,[11],0.1824 and 0.2167 and 0.2094
same,"Fb, fraction bound",[11],0.1573 and 0.2404 and 0.2826
same,Anisotropy,[12],189.1 and 196.5 and 200
same,"Anisotropy data 485,520,520",[12],191.6 and 193.5 and 193.1
same,Fb,[12],0.1691 and 0.2011 and 0.1981 and 0.1308 and 0.2177 and 0.2526
same,Anisotropy,[13],189.4 and 194.6 and 196.8
same,"Anisotropy data 485,520,520",[13],188.2 and 190.5 and 188.9
same,Fb,[13],0.1386 and 0.188 and 0.1681 and 0.1368 and 0.2032 and 0.2331
same,Anisotropy,[14],187.8 and 192.3 and 194.4
same,"Anisotropy data 485,520,520",[14],187.7 and 189.4 and 187
same,Fb,[14],0.1385 and 0.1801 and 0.1415 and 0.1179 and 0.1957 and 0.2214
same,Anisotropy,[15],185.9 and 188.6 and 192.2
same,Anisotropy based on Raw Data (485),[15],190.6 and 186.3 and 183.9
same,"Anisotropy data 485,520,520",[15],189.1 and 187 and 187.4
same,Anisotropy,[16],184.9 and 185.8 and 184
same,Anisotropy based on Raw Data (485),[16],189.4 and 184.2 and 184.4
same,Anisotropy,[17],182.2 and 184.6 and 184.5
same,Anisotropy based on Raw Data (485),[17],183.7 and 182.3 and 181
same,Anisotropy,[18],180.8 and 180.5 and 183.2
same,Anisotropy based on Raw Data (485),[18],181.8 and 183.2 and 180.1
same,Anisotropy,[19],179.3 and 180.8 and 181
same,Anisotropy based on Raw Data (485),[19],182.8 and 180 and 179.1
same,Anisotropy,[20],177.5 and 179.3 and 179.5
same,Anisotropy based on Raw Data (485),[20],180.4 and 180.3 and 177
same,Anisotropy,[21],176.6 and 179.2 and 184.1
same,Anisotropy based on Raw Data (485),[21],181.5 and 175 and 175.9
same,"Anisotropy data 485,520,520",MN551 12500 nM; Cycle 20 (95 min); n=1,175.1 and 174.3 and 179.2
same,Fb,"MN551 25000 nM, Cycle 7 (30 min)",0.06571 and 0.1096 and 0.08086
same,Anisotropy based on Raw Data (485),"MN551 25000 nM, Cycle 12 (55 min)",177.2 and 179.6 and 176.9
same,Anisotropy,"MN551 25000 nM, Cycle 13 (60 min), n=1",173.9 and 176.5 and 177
same,Anisotropy,"MN551 25000 nM, Cycle 14 (65 min), n=1",175.3 and 175.7 and 175.8
same,Anisotropy,"MN551 25000 nM, Cycle 15 (70 min), n=1",173.7 and 175.1 and 171.9
same,Anisotropy,"MN551 25000 nM, Cycle 16 (75 min), n=1",171.4 and 173.8 and 170.8
same,Anisotropy,"MN551 25000 nM, Cycle 18 (85 min), n=1",172.2 and 172.1 and 170.9
same,"Fb, fraction bound",MN551 25000 nM; Cycle 4 (15 min),0.1237 and 0.1359 and 0.1307
same,"Fb, fraction bound",MN551 25000 nM; Cycle 5 (20 min),0.07607 and 0.1475 and 0.111
same,"Fb, fraction bound",MN551 25000 nM; Cycle 6 (25 min),0.08609 and 0.09601 and 0.1005
same,"Anisotropy data 485,520,520",[22],185.7 and 182.6 and 187.2
same,Fb,[22],0.113 and 0.1065 and 0.1345
same,Anisotropy,[23],183 and 181.4
same,Anisotropy based on Raw Data (485),[23],180.8
same,"Anisotropy data 485,520,520",[23],183.3 and 181 and 184.6
same,Fb,[23],0.08844 and 0.08684 and 0.1179 and 0.07212 and 0.09209 and 0.07793
same,Anisotropy,[24],180.2 and 182.1 and 181.6
same,Anisotropy based on Raw Data (485),[24],181.4 and 180.4
same,"Anisotropy data 485,520,520",[24],182.2 and 182.3 and 182.6
same,Anisotropy,MN551 25000 nM; Cycle 10 (45 min),180.1 and 180.3 and 176.4
